Source: patent publication US20150232852
The exact form of at least one protein or probe is not confirmed. For part of these data: Negatives hold for the conditions tested. For part of these data: Protein sequences can lack the tags named with them.

The chains behind the UniProt entries cited, without tags or fusion partners. Residues count along the entry.
UniProt P09681, 52-93: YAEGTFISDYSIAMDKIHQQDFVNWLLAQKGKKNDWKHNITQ
UniProt P01275, 53-81: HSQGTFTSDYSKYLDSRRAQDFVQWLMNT
UniProt P01275, 98-128: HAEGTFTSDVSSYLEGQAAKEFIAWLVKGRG
UniProt P01275, 53-89: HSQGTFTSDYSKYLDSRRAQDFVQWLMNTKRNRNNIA

Legend:
[1] = target: GIP (glucose-dependent insulinotropic polypeptide) (Homo sapiens) (UniProt P09681); experiment: activity in cells; settings: mirror-image nucleic acid, dose not given here
[2] = target: glucagon, free peptide (cAMP assay) (Homo sapiens) (UniProt P01275); experiment: activity in cells; settings: mirror-image nucleic acid; for functional effect of the aptamer: purified recombinant protein, synthetic backbone, dose not given here; for IC50: 5'-40 kDa PEG, glucagon-induced cAMP, 37 C
[3] = target: GIP (glucose-dependent insulinotropic polypeptide) (Homo sapiens) (UniProt P09681); experiment: competition with a labelled probe; settings: 5'-40 kDa PEG, competitive Biacore, mirror-image nucleic acid
[4] = target: GLP-1(7-37) (Homo sapiens) (UniProt P01275); experiment: competition with a labelled probe; settings: 5'-40 kDa PEG, not recognized, competitor up to 2000 nM, mirror-image nucleic acid
GLP-2(1-33) = experiment: competition with a labelled probe; settings: 5'-40 kDa PEG, not recognized, competitor up to 2000 nM, mirror-image nucleic acid
oxyntomodulin (OXM) = oxyntomodulin (OXM) (UniProt P01275); experiment: competition with a labelled probe; settings: 5'-40 kDa PEG, comparable to glucagon, mirror-image nucleic acid
[5] = target: T1, Prepro-VIP(81-122) (PHV-42) (Homo sapiens) (UniProt P01282); experiment: competition with a labelled probe; settings: 5'-40 kDa PEG, mirror-image nucleic acid
T1 sequence: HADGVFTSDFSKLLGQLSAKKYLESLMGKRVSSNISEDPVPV

[6] = target: glucagon, L-form, biotinylated (glucagon1-29-AEEAc-AEEAc-biotin) (Homo sapiens) (UniProt P01275); experiment: SPR; settings: 5'-40 kDa PEG, 37 C, synthetic protein, mirror-image nucleic acid
[7] = L-DNA with L-rA13, variant of 259-H6-002-R13
[8] = L-DNA with L-rA12, L-rG23, L-rU35, variant of 259-H6-014-R12/23/35
[9] = L-DNA with L-ribonucleotides rG,rG,rG,rG,rT,rA,rA at central-stretch positions 2,8,11,12,19,22,23, variant of 257-E1-7xR-037
[10] = L-DNA with L-ribonucleotides rG,rG,rG,rG,rA,rA at central-stretch positions 2,8,11,12,22,23, variant of 257-E1-6xR-030

GCAGTGGGGAAATGGGAGGGCTAGGTGGAAGGAATCTGAGCTACTGC [257-E1-001 (spiegelmer)]
functional effect of the aptamer ([1]; L-DNA, no inhibition of GIP-induced cAMP, RIN-m5F cells, single-stranded DNA, variant of 257-E1-001 (aptamer)): not active

ACTCGAGAGGAAAGGTTGGTAAAGGTTCGGTTGGATTCACTCGAGT [259-H6-002-R13]
functional effect of the aptamer ([2]; L-DNA with L-ribo A at position 13, improved vs 259-H6-002, variant of 259-H6-002 (spiegelmer)): active

ACTCGAGAGGAAAGGTTGGTAAAGGTTCGGTTGGATTCACTCGAGT [NOX-G13 (259-H6-002-R13-5'-PEG)]
binding result ([3]; L-DNA with L-rA13, also inhibits GIP-induced cAMP, variant of 259-H6-002-R13): binds | binding result [4, 7]: no binding | binding result (GLP-2(1-33); [7]): no binding | binding result (oxyntomodulin (OXM); [7]): binds | binding result ([5]; L-DNA with L-rA13, not recognized, competitor up to 2000 nM, variant of 259-H6-002-R13): no binding | functional effect of the aptamer ([1]; L-DNA with L-ribo A at position 13, 5'-40 kDa PEG, dose-dependent inhibition of GIP-induced cAMP, RIN-m5F cells, purified recombinant protein, synthetic backbone): active

ACTCGAGAGGAAAGGTTGGTAAAGGTTCGGTTGGATTCACTCGAGT [259-H6-002 (spiegelmer)]
functional effect of the aptamer ([1]; L-DNA, dose-dependent inhibition of GIP-induced cAMP, RIN-m5F cells, single-stranded DNA, variant of 259-H6-002 (aptamer)): active | functional effect of the aptamer ([2]; L-DNA, inhibits glucagon-induced cAMP, CHO cells with human glucagon receptor): active

GCCGAGAGGAAAGGTTGGTAAAGGTTCGGTTGGAUTCACTCGGC [NOX-G14 (259-H6-014-R12/23/35-5'-PEG)]
binding result [6, 8]: binds | binding result [3, 8]: binds | binding result [4, 8]: no binding | binding result (GLP-2(1-33); [8]): no binding | binding result (oxyntomodulin (OXM); [8]): binds | binding result ([5]; L-DNA with L-ribo rA12, rG23, rU35, competitive Biacore, 37 C, purified recombinant protein, synthetic backbone): no binding | functional effect of the aptamer ([1]; L-DNA with L-ribo rA12, rG23, rU35, 5'-40 kDa PEG, inhibited GIP-induced cAMP formation, purified recombinant protein, synthetic backbone): active

ACTCGAGAGGAAAGGTTGGTAAAGGTTCGGTTGGAUTCACTCGAGT [259-H6-002-R13/24/36]
functional effect of the aptamer ([2]; L-DNA with L-ribo rA13, rG24, rU36, further improved vs 259-H6-002-R13, variant of 259-H6-002 (spiegelmer)): active

GCGGGAAATGGGAGGGCTAGGTGGAAGGAATCTGAGCGC [NOX-G16 (257-E1-7xR-037-5'-PEG)]
binding result ([6]; L-DNA with L-ribonucleotides rG,rG,rG,rG,rT,rA,rA at central-stretch positions 2,8,11,12,19,22,23, NOX-G16 kinetics (FIG. 16), variant of 257-E1-7xR-037): binds | binding result [4, 9]: no binding | binding result (GLP-2(1-33); [9]): no binding | binding result (oxyntomodulin (OXM); [9]): binds | binding result ([5]; L-DNA with seven L-ribonucleotides, competitive Biacore, 37 C, purified recombinant protein, synthetic backbone): no binding | IC50 ([2]; L-DNA with L-ribonucleotides rG,rG,rG,rG,rT,rA,rA at central-stretch positions 2,8,11,12,19,22,23, CHO cells with human glucagon receptor, variant of 257-E1-7xR-037): 2.43 nM

GCGGGAAATGGGAGGGCTAGGTGGAAGGAATCTGAGCGC [NOX-G15 (257-E1-6xR-030-5'-PEG)]
binding result [6, 10]: binds | binding result [4, 10]: no binding | binding result (GLP-2(1-33); [10]): no binding | binding result (oxyntomodulin (OXM); [10]): binds | binding result ([5]; L-DNA with L-ribonucleotides rG,rG,rG,rG,rA,rA at central-stretch positions 2,8,11,12,22,23, not recognized, competitor up to 2000 nM, variant of 257-E1-6xR-030): no binding | IC50 ([2]; L-DNA with L-ribonucleotides rG,rG,rG,rG,rA,rA at central-stretch positions 2,8,11,12,22,23, CHO cells with human glucagon receptor, variant of 257-E1-6xR-030): 3.44 nM
